Test results reported in the supplement of paper PMC10849652.
The list shows a part of the results.

Sequences of proteins named here, by UniProt entry; tags and fusion partners are left off. A change or cut given only in a name is not applied to a line headed by its entry.
UniProt O76094: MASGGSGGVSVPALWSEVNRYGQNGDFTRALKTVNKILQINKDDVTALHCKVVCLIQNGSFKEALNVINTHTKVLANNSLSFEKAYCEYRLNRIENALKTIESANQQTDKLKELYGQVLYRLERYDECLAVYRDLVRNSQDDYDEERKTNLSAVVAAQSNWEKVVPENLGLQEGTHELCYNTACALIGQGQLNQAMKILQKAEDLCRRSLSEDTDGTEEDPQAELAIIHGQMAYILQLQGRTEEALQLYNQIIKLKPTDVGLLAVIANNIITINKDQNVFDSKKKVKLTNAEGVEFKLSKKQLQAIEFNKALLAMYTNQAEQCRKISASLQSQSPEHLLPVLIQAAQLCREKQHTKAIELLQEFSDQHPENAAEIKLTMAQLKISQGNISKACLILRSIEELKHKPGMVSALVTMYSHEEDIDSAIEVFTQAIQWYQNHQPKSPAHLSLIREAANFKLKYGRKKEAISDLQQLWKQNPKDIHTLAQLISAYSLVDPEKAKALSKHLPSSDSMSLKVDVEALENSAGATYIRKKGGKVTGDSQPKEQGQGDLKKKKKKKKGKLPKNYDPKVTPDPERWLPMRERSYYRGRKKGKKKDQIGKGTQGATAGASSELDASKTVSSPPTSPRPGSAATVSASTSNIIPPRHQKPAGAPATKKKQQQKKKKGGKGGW
UniProt Q9NYA1, whole entry, looked up: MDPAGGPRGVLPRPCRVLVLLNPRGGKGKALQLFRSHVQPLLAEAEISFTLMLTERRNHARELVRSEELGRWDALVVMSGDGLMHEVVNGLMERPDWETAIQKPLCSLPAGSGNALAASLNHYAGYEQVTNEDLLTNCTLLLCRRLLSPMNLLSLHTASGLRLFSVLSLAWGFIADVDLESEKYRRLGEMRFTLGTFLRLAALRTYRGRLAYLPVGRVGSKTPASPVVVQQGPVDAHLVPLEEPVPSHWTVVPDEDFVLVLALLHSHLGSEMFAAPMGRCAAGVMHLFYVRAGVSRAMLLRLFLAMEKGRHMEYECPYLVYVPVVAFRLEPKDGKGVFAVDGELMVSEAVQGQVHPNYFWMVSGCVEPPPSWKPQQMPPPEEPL
UniProt P35270: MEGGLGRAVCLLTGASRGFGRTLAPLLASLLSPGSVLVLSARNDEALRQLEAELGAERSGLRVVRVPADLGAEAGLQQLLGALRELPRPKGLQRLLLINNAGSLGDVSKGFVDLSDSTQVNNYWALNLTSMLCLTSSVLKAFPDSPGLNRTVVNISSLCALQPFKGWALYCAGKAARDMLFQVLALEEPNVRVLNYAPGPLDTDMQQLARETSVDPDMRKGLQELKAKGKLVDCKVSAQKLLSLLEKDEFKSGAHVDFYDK
UniProt P50502: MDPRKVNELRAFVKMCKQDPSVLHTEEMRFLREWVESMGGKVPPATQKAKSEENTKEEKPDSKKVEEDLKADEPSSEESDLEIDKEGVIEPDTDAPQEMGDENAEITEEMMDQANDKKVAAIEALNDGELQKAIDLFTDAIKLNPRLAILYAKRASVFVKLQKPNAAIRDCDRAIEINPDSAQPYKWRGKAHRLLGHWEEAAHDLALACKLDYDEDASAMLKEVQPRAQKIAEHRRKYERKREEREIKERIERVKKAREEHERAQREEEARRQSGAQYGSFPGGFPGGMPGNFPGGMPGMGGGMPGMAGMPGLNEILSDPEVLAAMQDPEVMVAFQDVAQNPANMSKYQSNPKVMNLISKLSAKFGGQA
UniProt Q8N3U4: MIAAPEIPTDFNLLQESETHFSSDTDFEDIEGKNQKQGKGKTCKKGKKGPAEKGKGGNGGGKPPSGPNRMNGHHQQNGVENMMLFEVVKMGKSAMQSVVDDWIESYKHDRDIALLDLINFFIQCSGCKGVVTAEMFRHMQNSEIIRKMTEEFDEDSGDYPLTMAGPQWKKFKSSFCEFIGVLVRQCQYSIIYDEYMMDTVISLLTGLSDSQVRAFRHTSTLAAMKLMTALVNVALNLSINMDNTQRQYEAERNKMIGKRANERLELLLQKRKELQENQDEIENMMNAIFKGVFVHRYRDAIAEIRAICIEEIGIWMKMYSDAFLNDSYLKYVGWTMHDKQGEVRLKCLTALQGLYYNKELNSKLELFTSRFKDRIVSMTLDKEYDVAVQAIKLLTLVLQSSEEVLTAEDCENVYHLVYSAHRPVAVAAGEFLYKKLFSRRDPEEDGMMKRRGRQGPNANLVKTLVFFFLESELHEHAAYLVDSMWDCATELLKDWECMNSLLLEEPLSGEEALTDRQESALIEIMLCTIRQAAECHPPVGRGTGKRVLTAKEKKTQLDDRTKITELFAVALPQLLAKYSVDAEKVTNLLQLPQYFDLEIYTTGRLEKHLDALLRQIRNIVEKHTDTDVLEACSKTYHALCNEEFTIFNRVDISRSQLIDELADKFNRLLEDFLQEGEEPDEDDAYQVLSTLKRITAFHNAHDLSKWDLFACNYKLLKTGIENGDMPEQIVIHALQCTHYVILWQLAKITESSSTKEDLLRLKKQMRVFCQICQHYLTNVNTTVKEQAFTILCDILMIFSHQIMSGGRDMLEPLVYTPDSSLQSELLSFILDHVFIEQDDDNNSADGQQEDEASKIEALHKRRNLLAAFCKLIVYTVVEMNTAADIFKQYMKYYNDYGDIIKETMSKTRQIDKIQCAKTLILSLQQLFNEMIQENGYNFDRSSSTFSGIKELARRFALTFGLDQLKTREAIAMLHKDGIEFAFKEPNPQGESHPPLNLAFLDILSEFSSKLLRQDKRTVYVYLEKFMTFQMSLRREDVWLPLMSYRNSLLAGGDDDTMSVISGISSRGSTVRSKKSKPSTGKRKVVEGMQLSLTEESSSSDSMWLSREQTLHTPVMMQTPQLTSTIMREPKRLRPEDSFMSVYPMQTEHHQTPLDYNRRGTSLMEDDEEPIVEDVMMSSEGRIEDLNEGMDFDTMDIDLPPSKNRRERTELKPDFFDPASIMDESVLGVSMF
UniProt Q8N0X7: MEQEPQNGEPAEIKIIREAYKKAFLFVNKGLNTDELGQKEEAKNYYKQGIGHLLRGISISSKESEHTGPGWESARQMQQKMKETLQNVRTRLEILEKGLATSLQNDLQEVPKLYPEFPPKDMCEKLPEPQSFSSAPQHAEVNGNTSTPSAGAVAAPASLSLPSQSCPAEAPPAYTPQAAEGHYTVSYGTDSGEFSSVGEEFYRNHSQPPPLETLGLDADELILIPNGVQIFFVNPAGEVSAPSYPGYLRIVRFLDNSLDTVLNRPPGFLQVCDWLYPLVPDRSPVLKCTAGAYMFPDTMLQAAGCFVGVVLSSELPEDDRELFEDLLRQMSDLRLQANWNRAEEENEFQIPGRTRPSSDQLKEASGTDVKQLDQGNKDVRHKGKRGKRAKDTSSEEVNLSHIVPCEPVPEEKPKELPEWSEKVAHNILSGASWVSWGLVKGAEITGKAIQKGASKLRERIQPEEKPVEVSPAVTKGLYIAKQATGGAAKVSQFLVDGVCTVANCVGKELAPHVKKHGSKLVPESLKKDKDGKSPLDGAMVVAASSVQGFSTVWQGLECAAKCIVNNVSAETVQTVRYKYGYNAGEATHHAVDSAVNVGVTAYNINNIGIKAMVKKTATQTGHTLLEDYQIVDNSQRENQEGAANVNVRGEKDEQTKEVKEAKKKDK
UniProt Q08AE8, whole entry, looked up: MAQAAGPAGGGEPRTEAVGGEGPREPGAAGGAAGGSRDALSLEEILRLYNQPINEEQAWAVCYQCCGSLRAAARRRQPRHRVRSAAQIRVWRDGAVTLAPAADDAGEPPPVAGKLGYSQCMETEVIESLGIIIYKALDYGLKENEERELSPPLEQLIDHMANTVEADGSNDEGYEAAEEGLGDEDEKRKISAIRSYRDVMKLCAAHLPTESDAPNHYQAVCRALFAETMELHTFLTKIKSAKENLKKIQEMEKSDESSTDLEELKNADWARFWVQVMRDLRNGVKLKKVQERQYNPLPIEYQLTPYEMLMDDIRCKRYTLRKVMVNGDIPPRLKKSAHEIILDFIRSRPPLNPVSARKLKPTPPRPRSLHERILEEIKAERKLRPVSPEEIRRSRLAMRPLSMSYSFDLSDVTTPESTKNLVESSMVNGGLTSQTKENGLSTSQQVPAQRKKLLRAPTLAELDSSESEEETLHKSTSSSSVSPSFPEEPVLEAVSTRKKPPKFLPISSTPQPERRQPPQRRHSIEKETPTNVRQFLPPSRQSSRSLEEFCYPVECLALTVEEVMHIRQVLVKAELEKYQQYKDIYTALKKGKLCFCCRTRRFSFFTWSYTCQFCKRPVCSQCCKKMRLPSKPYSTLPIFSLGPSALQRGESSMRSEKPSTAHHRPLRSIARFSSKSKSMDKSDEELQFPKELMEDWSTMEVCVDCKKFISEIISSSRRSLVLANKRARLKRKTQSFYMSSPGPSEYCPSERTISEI
UniProt Q9BVQ7: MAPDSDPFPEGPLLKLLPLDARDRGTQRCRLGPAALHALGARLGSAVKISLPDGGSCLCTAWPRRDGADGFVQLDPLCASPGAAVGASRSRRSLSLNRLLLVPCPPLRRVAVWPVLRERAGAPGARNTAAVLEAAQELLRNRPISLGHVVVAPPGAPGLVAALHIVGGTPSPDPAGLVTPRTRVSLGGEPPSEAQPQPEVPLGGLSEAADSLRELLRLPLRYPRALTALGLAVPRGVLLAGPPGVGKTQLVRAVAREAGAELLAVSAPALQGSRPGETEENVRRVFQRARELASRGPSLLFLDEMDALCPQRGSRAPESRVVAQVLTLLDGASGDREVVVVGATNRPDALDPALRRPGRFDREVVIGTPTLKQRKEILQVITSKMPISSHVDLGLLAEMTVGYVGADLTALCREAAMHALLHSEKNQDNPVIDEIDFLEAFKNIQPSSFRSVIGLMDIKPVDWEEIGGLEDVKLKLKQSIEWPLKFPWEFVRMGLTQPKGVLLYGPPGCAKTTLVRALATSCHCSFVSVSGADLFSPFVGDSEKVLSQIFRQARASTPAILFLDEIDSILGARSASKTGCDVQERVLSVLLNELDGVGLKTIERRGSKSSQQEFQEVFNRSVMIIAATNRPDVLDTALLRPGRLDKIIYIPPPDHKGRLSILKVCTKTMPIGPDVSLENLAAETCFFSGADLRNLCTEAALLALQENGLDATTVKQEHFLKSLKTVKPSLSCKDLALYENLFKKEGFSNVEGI
UniProt Q9HBM1: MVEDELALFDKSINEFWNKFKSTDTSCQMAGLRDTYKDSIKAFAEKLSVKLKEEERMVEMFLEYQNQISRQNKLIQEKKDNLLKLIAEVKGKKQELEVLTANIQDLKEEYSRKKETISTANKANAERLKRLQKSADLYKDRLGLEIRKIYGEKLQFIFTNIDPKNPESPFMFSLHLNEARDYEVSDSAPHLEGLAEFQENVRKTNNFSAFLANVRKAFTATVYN
UniProt P05455: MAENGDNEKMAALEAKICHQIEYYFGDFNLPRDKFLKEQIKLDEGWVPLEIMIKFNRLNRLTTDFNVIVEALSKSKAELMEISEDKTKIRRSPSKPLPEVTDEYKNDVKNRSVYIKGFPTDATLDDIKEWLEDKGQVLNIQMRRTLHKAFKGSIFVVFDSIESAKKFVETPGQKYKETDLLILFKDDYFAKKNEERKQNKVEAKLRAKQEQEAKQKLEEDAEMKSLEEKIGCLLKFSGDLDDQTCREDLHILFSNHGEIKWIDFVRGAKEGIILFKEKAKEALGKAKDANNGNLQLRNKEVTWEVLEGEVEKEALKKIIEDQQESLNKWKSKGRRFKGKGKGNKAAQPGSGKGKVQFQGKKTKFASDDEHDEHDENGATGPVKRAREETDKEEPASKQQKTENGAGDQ
UniProt Q96SB4, whole entry, looked up: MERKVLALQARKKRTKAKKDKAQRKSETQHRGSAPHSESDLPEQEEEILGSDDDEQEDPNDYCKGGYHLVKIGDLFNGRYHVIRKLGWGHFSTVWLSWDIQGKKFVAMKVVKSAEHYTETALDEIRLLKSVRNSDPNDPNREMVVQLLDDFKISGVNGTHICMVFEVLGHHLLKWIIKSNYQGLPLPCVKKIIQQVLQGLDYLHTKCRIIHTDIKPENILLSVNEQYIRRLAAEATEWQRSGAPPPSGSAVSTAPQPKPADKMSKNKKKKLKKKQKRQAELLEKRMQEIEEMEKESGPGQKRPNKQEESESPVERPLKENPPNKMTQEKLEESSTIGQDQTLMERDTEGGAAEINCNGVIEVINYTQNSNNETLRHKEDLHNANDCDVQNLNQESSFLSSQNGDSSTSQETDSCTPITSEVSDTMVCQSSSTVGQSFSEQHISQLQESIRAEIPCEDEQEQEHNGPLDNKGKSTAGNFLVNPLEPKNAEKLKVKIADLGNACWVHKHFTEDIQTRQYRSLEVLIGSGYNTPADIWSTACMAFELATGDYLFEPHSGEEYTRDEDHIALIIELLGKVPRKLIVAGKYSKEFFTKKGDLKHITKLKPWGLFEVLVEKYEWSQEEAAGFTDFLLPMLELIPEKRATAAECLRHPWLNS

Columns and labels:
Assay in all cases: log2 fold change, soluble protein after heating vs DMSO (PISA); higher = thermal stabilisation; K562 lysate, 10 uM; active = over 0.2 and 3.5 SD of the protein, either way, in both replicates (recomputed)
vemurafenib = compound: CCCS(=O)(=O)Nc1ccc(F)c(C(=O)c2c[nH]c3ncc(-c4ccc(Cl)cc4)cc23)c1F [vemurafenib]
Summary of the method: (§1)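 Soluble protein was defined as the supernatant remaining after 21,000xg for 90 min, following pooling of heated aliquots and adjustment to 0.5% NP-40 at 4°C. Before that, crude K562 extract at 1 mg/mL protein in PBS pH 7.4 with 1 mM MgCl2 was treated with 10 μM compound for 30 min and heated for 3 min across 48°C-58°C. Quantification used TMTpro 16plex LC-MS/MS with channel sums equalised, and values are log-two fold changes in thermal stability relative to solvent controls from duplicates.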

[1] = compound: CCCS(=O)(=O)Nc1ccc(F)c(C(=O)c2c[nH]c3ncc(Cl)cc23)c1F
Summary of the method: as §1

barasertib = compound: CCN(CCCOc1ccc2c(Nc3cc(CC(=O)Nc4cccc(F)c4)[nH]n3)ncnc2c1)CCOP(=O)(O)O [barasertib]
Summary of the method: as §1

[2] = compound: CC[C@@H]1C(=O)N(C)c2cnc(Nc3ccc(C(=O)NC4CCN(C)CC4)cc3OC)nc2N1C1CCCC1
Summary of the method: as §1

volasertib = compound: CC[C@@H]1C(=O)N(C)c2cnc(Nc3ccc(C(=O)N[C@H]4CC[C@H](N5CCN(CC6CC6)CC5)CC4)cc3OC)nc2N1C(C)C [volasertib]
Summary of the method: as §1

[3] = compound: CCn1c(C(=O)N(C2CC2)C2CC2)cc2c3c(ncn3C)c(Nc3cc(C)n(C)n3)nc21
Summary of the method: as §1

[4] = compound: CCn1cc(-c2ccnc3[nH]c(-c4cccc(CN(C)C)c4)cc23)c(-c2ccc(NC(=O)N(C)C)cc2)n1
Summary of the method: as §1

[5] = compound: CN1CCC(CNc2ccc3ncc(-c4cccc(OC(F)(F)F)c4)n3n2)CC1
Summary of the method: as §1

saracatinib = compound: CN1CCN(CCOc2cc(OC3CCOCC3)c3c(Nc4c(Cl)ccc5c4OCO5)ncnc3c2)CC1 [saracatinib]
Summary of the method: as §1

sotrastaurin = compound: CN1CCN(c2nc(C3=C(c4c[nH]c5ccccc45)C(=O)NC3=O)c3ccccc3n2)CC1 [sotrastaurin]
Summary of the method: as §1

alvocidib = compound: CN1CC[C@H](c2c(O)cc(O)c3c(=O)cc(-c4ccccc4Cl)oc23)[C@H](O)C1 [alvocidib]
Summary of the method: as §1

Tubastatin A = compound: CN1CCc2c(c3ccccc3n2Cc2ccc(C(=O)NO)cc2)C1 [Tubastatin A]
Summary of the method: as §1

[6] = compound: CNC(=O)C1=CC=CC=C1NC2=NC(=NC=C2Cl)NC3=C(C=C(C=C3)N4CCOCC4)OC
Summary of the method: as §1

defactinib = compound: CNC(=O)c1ccc(Nc2ncc(C(F)(F)F)c(NCc3nccnc3N(C)S(C)(=O)=O)n2)cc1 [defactinib]
Summary of the method: as §1

[7] = compound: CNc1nc(-c2ccc3c(N)n[nH]c3c2)cc(N2C[C@@H](C(=O)NC3CCCCC3)CC[C@H]2C)n1
Summary of the method: as §1

encorafenib = compound: COC(=O)N[C@@H](C)CNc1nccc(-c2cn(C(C)C)nc2-c2cc(Cl)cc(NS(C)(=O)=O)c2F)n1 [encorafenib]
Summary of the method: as §1

[8] = compound: COC(=O)[C@H](CCSC)NC(=O)C1=C(C=C(C=C1)NC[C@H](CS)N)C2=CC=CC=C2
Summary of the method: as §1

alisertib = compound: COc1cc(Nc2ncc3c(n2)-c2ccc(Cl)cc2C(c2c(F)cccc2OC)=NC3)ccc1C(=O)O [alisertib]
Summary of the method: as §1

[9] = compound: COc1cc2nc(-c3cc(F)ccc3O)nc(N[C@@H]3CNC[C@H]3C(C)(C)O)c2cc1OC
Summary of the method: as §1

gefitinib = compound: COc1cc2ncnc(Nc3ccc(F)c(Cl)c3)c2cc1OCCCN1CCOCC1 [gefitinib]
Summary of the method: as §1

Target	log2 fold change (vemurafenib)	log2 fold change [1]	log2 fold change (barasertib)	log2 fold change [2]	log2 fold change (volasertib)	log2 fold change [3]	log2 fold change [4]	log2 fold change [5]	log2 fold change (saracatinib)	log2 fold change (sotrastaurin)	log2 fold change (alvocidib)	log2 fold change (Tubastatin A)	log2 fold change [6]	log2 fold change (defactinib)	log2 fold change [7]	log2 fold change (encorafenib)	log2 fold change [8]	log2 fold change (alisertib)	log2 fold change [9]	log2 fold change (gefitinib)
SRP72 (UniProt O76094)	inactive: 0.019	inactive: 0.027	inactive: 0.013	inactive: 0.01	inactive: -0.017	inactive: -0.012	inactive: -0.018	inactive: -0.074	inactive: 0.018	inactive: 0.011	inactive: 0	inactive: -0.047	inactive: 0.009	inactive: 0.043	inactive: 0.016	inactive: 0.033	inactive: 0.041	inactive: -0.001	inactive: 0.045	inactive: -0.024
SPHK1 isoform 2 (UniProt Q9NYA1)	inactive: -0.009	inactive: 0.034	inactive: 0.008	inactive: -0.051	inactive: -0.022	inactive: 0.171	inactive: -0.003	inactive: 0.056	inactive: 0.086	inactive: 0.029	inactive: 0.023	inactive: -0.114	inactive: 0.046	inactive: 0.076	inactive: -0.175	inactive: 0.018	inactive: 0.006	inactive: 0.045	inactive: 0.022	inactive: 0.069
SPR (UniProt P35270)	inactive: 0.01	inactive: 0.026	inactive: -0.013	inactive: -0.014	inactive: -0.003	inactive: -0.024	inactive: 0.158	inactive: -0.028	inactive: 0.093	inactive: -0.047	inactive: 0.164	inactive: -0.1	inactive: 0.071	inactive: 0.019	inactive: 0.01	inactive: -0.097	inactive: 0.22	inactive: 0.163	inactive: -0.017	inactive: -0.013
SPCS1, A0A5F9YFS9	inactive: 0.073	inactive: -0.001	inactive: 0.054	inactive: 0.017	inactive: 0.017	inactive: 0.023	inactive: 0.008	inactive: -0.05	inactive: 0.087	inactive: -0.107	inactive: 0.045	inactive: 0.01	inactive: -0.01	inactive: -0.025	inactive: 0.297	inactive: 0.053	inactive: -0.031	inactive: -0.086	inactive: -0.016	inactive: 0.001
ST13 (UniProt P50502)	inactive: 0.014	inactive: -0.021	inactive: -0.015	inactive: 0.02	inactive: 0.007	inactive: -0.001	inactive: 0.031	inactive: -0.004	inactive: -0.007	inactive: -0.028	inactive: -0.009	inactive: 0.022	inactive: -0.015	inactive: -0.015	inactive: 0.001	inactive: -0.011	inactive: -0.014	inactive: 0.02	inactive: 0.001	inactive: 0.037
STAG2 isoform 2 (UniProt Q8N3U4)	inactive: -0.001	inactive: 0.001	inactive: -0.019	inactive: 0.007	inactive: -0.016	inactive: -0.001	inactive: 0.016	inactive: -0.026	inactive: -0.021	inactive: 0.022	inactive: 0.028	inactive: 0.001	inactive: 0.034	inactive: -0.021	inactive: -0.01	inactive: 0.019	inactive: 0.007	inactive: -0.005	inactive: -0.008	inactive: 0.004
SPART (UniProt Q8N0X7)	inactive: -0.02	inactive: 0.008	inactive: -0.038	inactive: 0.086	inactive: 0.024	inactive: -0.013	inactive: 0.015	inactive: -0.045	inactive: -0.009	inactive: 0.008	inactive: -0.038	inactive: -0.015	inactive: 0.024	inactive: 0.067	inactive: 0.076	inactive: 0.092	inactive: 0.016	inactive: 0.011	inactive: 0.032	inactive: 0.011
SRR (UniProt Q9GZT4)	inactive: 0.04	inactive: -0.106	inactive: 0.011	inactive: 0.108	inactive: 0.011	inactive: -0.053	inactive: -0.026	inactive: 0.075	inactive: -0.11	inactive: 0.139	inactive: 0.01	inactive: -0.175	inactive: -0.035	inactive: 0.067	inactive: 0.133	inactive: 0.01	inactive: 0.058	inactive: 0.077	inactive: -0.107	inactive: 0.008
SPIRE1 (UniProt Q08AE8)	inactive: 0.009	inactive: 0.05	inactive: 0.023	inactive: 0.051	inactive: -0.016	inactive: 0.003	inactive: -0.298	inactive: 0.077	inactive: 0.017	inactive: 0.089	inactive: -0.101	inactive: 0.02	inactive: 0.038	inactive: -0.024	inactive: 0.084	inactive: -0.046	inactive: -0.036	inactive: 0.02	inactive: 0.076	inactive: 0.049
SPATA5L1 (UniProt Q9BVQ7)	inactive: 0.03	inactive: 0.015	inactive: 0.052	inactive: -0.058	inactive: -0.135	inactive: 0.014	inactive: -0.023	inactive: 0.012	inactive: 0.024	inactive: 0.015	inactive: 0.022	inactive: -0.16	inactive: 0.019	inactive: 0.036	inactive: 0.23	inactive: 0	inactive: -0.061	inactive: 0.024	inactive: -0.052	inactive: -0.013
SPC25 (UniProt Q9HBM1)	inactive: 0.011	inactive: -0.008	inactive: 0.036	inactive: 0.006	inactive: -0.019	inactive: 0.012	inactive: -0.083	inactive: -0.004	inactive: 0.013	inactive: -0.013	inactive: -0.015	inactive: 0.009	inactive: 0.024	inactive: -0.017	inactive: -0.014	inactive: 0.034	inactive: 0.014	inactive: -0.008	inactive: -0.043	inactive: -0.011
SPTBN1 (UniProt Q01082)	inactive: 0.007	inactive: 0.018	inactive: 0.022	inactive: 0	inactive: -0.03	inactive: -0.006	inactive: -0.024	inactive: -0.022	inactive: 0.031	inactive: -0.008	inactive: 0.02	inactive: -0.011	inactive: 0.006	inactive: -0.014	inactive: -0.005	inactive: 0.001	inactive: -0.003	inactive: -0.002	inactive: -0.004	inactive: -0.004
SSB (UniProt P05455)	inactive: -0.004	inactive: -0.02	inactive: -0.001	inactive: -0.011	inactive: 0.011	inactive: 0.002	inactive: 0.011	inactive: -0.021	inactive: -0.015	inactive: -0.016	inactive: 0.057	inactive: 0.018	inactive: -0.02	inactive: -0.019	inactive: -0.015	inactive: -0.029	inactive: 0.022	inactive: -0.003	inactive: 0.002	inactive: -0.008
SPTA1 (UniProt P02549)	inactive: -0.01	inactive: 0.012	inactive: 0.006	inactive: -0.052	inactive: -0.055	inactive: 0.041	inactive: -0.017	inactive: -0.034	inactive: 0.011	inactive: 0.018	inactive: 0.013	inactive: -0.052	inactive: 0	inactive: 0.002	inactive: -0.037	inactive: 0.009	inactive: 0.037	inactive: 0.006	inactive: -0.01	inactive: 0.005
SRSF1 (UniProt Q07955)	inactive: 0.046	inactive: -0.007	inactive: -0.021	inactive: -0.015	inactive: 0.011	inactive: 0.015	inactive: 0.103	inactive: -0.027	inactive: -0.044	inactive: 0.007	inactive: 0.001	inactive: -0.006	inactive: -0.015	inactive: -0.037	inactive: 0.065	inactive: 0.012	inactive: 0.012	inactive: -0.015	inactive: -0.004	inactive: 0.013
SRPK1 (UniProt Q96SB4)	inactive: 0.003	inactive: 0.029	inactive: -0.014	inactive: 0.093	inactive: -0.01	inactive: 0.008	inactive: 0.055	inactive: -0.072	inactive: 0.012	inactive: 0.021	active: 0.286	inactive: -0.062	inactive: 0.189	inactive: 0.106	inactive: 0.008	inactive: -0.029	inactive: 0.102	inactive: 0.006	inactive: 0.015	inactive: 0.018

Laid out differently: results already given.
Target,log2 fold change (vemurafenib),log2 fold change [1],log2 fold change (barasertib),log2 fold change [2],log2 fold change (volasertib),log2 fold change [3],log2 fold change [4],log2 fold change [5],log2 fold change (saracatinib),log2 fold change (sotrastaurin),log2 fold change (alvocidib),log2 fold change (Tubastatin A),log2 fold change [6],log2 fold change (defactinib),log2 fold change [7],log2 fold change (encorafenib),log2 fold change [8],log2 fold change (alisertib),log2 fold change [9],log2 fold change (gefitinib)
SPC25 (UniProt Q9HBM1),inactive: 0.011,inactive: -0.008,inactive: 0.036,inactive: 0.006,inactive: -0.019,inactive: 0.012,inactive: -0.083,inactive: -0.004,inactive: 0.013,inactive: -0.013,inactive: -0.015,inactive: 0.009,inactive: 0.024,inactive: -0.017,inactive: -0.014,inactive: 0.034,inactive: 0.014,inactive: -0.008,inactive: -0.043,inactive: -0.011
SPTBN1 (UniProt Q01082),inactive: 0.007,inactive: 0.018,inactive: 0.022,inactive: 0,inactive: -0.03,inactive: -0.006,inactive: -0.024,inactive: -0.022,inactive: 0.031,inactive: -0.008,inactive: 0.02,inactive: -0.011,inactive: 0.006,inactive: -0.014,inactive: -0.005,inactive: 0.001,inactive: -0.003,inactive: -0.002,inactive: -0.004,inactive: -0.004
